Test results reported in publication PMC3079584.
Substitutions are numbered along the chain they refer to. Results are given in words; binding and its absence hold for the method and conditions named. Tags and fused reporters may be left off the sequences shown.

Amino acid sequences for entries named in this document (tags omitted). A change or cut given only in a name is not applied to a line headed by its entry.
UniProt P36068: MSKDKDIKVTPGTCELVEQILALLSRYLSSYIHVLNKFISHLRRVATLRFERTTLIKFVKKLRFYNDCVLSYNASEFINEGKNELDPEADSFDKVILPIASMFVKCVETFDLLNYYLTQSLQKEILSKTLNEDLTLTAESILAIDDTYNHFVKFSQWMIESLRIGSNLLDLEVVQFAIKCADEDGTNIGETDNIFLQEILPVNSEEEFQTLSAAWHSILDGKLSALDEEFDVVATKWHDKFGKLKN

What was measured:
[1] = target: T1, Full-length His-She3p (Saccharomyces cerevisiae) (UniProt P38272); test: pull-down; His-tagged She3p (full length, point mutants, or MBP-She3p fragment-His) on nickel sepharose, no RNA; 7.5–10 µM of each protein, HNMD-buffer (20 mM HEPES pH 7.8, 200 mM NaCl, 2 mM MgCl2, 2 mM DTT) with 30–50 mM imidazole, 30–60 min at 4°C; SDS-PAGE, Coomassie; both purified
T1 sequence: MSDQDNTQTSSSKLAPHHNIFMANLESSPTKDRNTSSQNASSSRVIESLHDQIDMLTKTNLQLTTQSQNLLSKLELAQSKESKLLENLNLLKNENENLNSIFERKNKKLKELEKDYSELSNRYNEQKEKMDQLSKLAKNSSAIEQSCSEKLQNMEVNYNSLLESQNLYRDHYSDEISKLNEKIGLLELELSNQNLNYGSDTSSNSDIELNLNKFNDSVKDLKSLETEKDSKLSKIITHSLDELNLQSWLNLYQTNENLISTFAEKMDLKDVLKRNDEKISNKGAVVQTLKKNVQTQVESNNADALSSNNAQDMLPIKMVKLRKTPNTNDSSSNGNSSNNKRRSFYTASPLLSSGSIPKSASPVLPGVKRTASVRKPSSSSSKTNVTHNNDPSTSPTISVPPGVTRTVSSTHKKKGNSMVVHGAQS

[2] = target: T2, His-She3p (L364A V367A) (Saccharomyces cerevisiae) (UniProt P38272); test: as above
T2 sequence: T1 sequence with L364A, V367A

Q: How did the binding [1] turn out when “She2p (F195A L196A) (from UniProt P36068 1-246)” was run?
A: no binding (tested: 7.5–10 µM of each protein)

Q: “She2p (Q197A E198A I199A) (from UniProt P36068 1-246)” was tested. Which binding [1] did it give?
A: no binding (tested: 7.5–10 µM of each protein)

Q: “She2p (wild type) (from UniProt P36068 1-246)” was tested. Which binding [2] did it give?
A: no binding (tested: 7.5–10 µM of each protein)
